From ChEMBL document CHEMBL4513136, “CO-ADD screening of CSIC (Spain) compounds”
The list shows a part of the results. Potency and affinity values are given separately.

Tested on: Pseudomonas aeruginosa
Conditions: Concentration 32 ug.mL-1; ASSAY_TEST Inhibition of Bacterial Growth; detection method Absorption (OD600); MEDIA CAMHB; plate type 384well; NBS; CORNING #3640; time 18 hr

Row | Structure (SMILES) | Inhibition [%]
1 | O=C(Cc1cc(O)ccc1O)Nc1ccc(O)cc1O | 17.31
2 | O=C(Cc1cc(O)ccc1O)Nc1ccc(O)cc1 | 12.22
3 | COc1ccc(OC)c(C(=O)/C=C/c2ccccc2O)c1 | 5.24
4 | O=C(/C=C/c1ccccc1O)c1cc(O)c(O)cc1O | 22.81
5 | COc1ccccc1/C=C/C(=O)c1cc(OC)c(OC)cc1OC | 11.59
6 | COc1ccc(OC)c(CC(=O)Nc2cc(OC)ccc2OC)c1 | 2.74
7 | O=C(OCc1ccccc1)N1C(=O)C(c2ccccc2NC(=O)C(F)(F)F)=C(O)C1Cc1ccccc1 (stereo unspecified) | 7.49
8 | COc1ccc(C(=O)/C=C/c2ccc(OC)cc2OC)cc1 | 1.68
9 | COC(=O)c1c(C(Cc2ccccc2)NC(=O)OCc2ccccc2)[nH]c2ccccc12 (stereo unspecified) | -3.99
10 | COc1ccc(OC)c(C(=O)CCc2ccccc2O)c1 | 2.84
11 | Oc1ccc(-n2cc(-c3cc(O)ccc3O)nn2)cc1 | 13.95
12 | COc1ccc(CN2C(=O)C(C)C2(Cc2cn(C(=O)OC(C)(C)C)c3ccccc23)C(=O)OC(C)(C)C)cc1 (stereo unspecified) | 9.77
13 | O=C(Nc1ccc(O)cc1O)Nc1cc(O)ccc1O | -3.51
14 | O=C(Cc1cc(O)ccc1O)Nc1cc(O)ccc1O | 11.55
15 | Oc1ccc(O)c(-c2cn(-c3ccc(O)c(O)c3)nn2)c1 | 3.97
16 | O=C(CCc1ccc(O)cc1O)c1cc(O)ccc1O | 18.43
17 | COc1ccc(OC)c(C(=O)CCc2ccc(O)cc2)c1 | -0.06
18 | COc1ccc(OC)c(NC(=O)Nc2ccc(OC)cc2OC)c1 | 7.86
19 | COc1ccc(OC)c(C(=O)/C=C/c2c[nH]c3ccc(OC)cc23)c1 | 12.56
20 | COc1ccc(NC(=O)Cc2cc(OC)ccc2OC)cc1 | 11.92
21 | CC1C(=O)N(Cc2ccc(OCCN3CCOCC3)cc2)C1(Cc1ccccc1)C(=O)O (stereo unspecified) | -0.13
22 | COc1ccc(OC)c(-c2cn(-c3ccc(OC)c(OC)c3)nn2)c1 | -6.79
23 | COC(=O)C1(Cc2ccc(OCc3c(Cl)cccc3Cl)cc2)C(C)C(=O)N1Cc1ccc(OC)cc1 (stereo unspecified) | 39.73
24 | COc1ccc(OC)c(CC(=O)Nc2ccc(OC)cc2OC)c1 | 13.71
25 | COc1ccc(OC)c(C(=O)/C=C/c2ccc(O)cc2)c1 | 14.08
26 | O=C(/C=C/c1c[nH]c2ccc(O)cc12)c1cc(O)ccc1O | 12.03

Nos. 2 through 3 from above:
Row | Structure (SMILES) | Inhibition [%]
2 | O=C(Cc1cc(O)ccc1O)Nc1ccc(O)cc1 | 12.22
3 | COc1ccc(OC)c(C(=O)/C=C/c2ccccc2O)c1 | 5.24
